Values quoted from earlier work, collected in patent US6428823B1, “Biologically active aqueous fraction of an extract obtained from a mangrove plant Salvadora persica L” (Council of Scientific & Industrial Research, priority 2001, dated 2002).
At least one structure is not confirmed: it was looked up by name or label, or the drawing left a doubt.

Legend:
[1] = system: human melanoma e.g. MEL-1, MEL-2 and MEL-4; conditions: human melanoma MEL-1, MEL-2, MEL-4; Nature medicine 1995; cited from earlier work
HIV = conditions: H9 lymphocytic cells; J.Nat.Prod. 1994; cited from earlier work

Structure (SMILES): C=C(C)[C@@H]1CC[C@]2(C(=O)O)CC[C@]3(C)[C@H](CC[C@@H]4[C@@]5(C)CC[C@H](O)C(C)(C)[C@@H]5CC[C@]43C)[C@@H]12 [betulinic acid]
- anti-tumour activity [1]: selective anti-tumour activity
- anti-HIV activity (HIV): has anti-HIV activity
